The record followed here is paper PMC3253059.

Amino acid sequences for entries named in this document (tags omitted). Residues count along the entry.
UniProt Q00960, residues 27-1482: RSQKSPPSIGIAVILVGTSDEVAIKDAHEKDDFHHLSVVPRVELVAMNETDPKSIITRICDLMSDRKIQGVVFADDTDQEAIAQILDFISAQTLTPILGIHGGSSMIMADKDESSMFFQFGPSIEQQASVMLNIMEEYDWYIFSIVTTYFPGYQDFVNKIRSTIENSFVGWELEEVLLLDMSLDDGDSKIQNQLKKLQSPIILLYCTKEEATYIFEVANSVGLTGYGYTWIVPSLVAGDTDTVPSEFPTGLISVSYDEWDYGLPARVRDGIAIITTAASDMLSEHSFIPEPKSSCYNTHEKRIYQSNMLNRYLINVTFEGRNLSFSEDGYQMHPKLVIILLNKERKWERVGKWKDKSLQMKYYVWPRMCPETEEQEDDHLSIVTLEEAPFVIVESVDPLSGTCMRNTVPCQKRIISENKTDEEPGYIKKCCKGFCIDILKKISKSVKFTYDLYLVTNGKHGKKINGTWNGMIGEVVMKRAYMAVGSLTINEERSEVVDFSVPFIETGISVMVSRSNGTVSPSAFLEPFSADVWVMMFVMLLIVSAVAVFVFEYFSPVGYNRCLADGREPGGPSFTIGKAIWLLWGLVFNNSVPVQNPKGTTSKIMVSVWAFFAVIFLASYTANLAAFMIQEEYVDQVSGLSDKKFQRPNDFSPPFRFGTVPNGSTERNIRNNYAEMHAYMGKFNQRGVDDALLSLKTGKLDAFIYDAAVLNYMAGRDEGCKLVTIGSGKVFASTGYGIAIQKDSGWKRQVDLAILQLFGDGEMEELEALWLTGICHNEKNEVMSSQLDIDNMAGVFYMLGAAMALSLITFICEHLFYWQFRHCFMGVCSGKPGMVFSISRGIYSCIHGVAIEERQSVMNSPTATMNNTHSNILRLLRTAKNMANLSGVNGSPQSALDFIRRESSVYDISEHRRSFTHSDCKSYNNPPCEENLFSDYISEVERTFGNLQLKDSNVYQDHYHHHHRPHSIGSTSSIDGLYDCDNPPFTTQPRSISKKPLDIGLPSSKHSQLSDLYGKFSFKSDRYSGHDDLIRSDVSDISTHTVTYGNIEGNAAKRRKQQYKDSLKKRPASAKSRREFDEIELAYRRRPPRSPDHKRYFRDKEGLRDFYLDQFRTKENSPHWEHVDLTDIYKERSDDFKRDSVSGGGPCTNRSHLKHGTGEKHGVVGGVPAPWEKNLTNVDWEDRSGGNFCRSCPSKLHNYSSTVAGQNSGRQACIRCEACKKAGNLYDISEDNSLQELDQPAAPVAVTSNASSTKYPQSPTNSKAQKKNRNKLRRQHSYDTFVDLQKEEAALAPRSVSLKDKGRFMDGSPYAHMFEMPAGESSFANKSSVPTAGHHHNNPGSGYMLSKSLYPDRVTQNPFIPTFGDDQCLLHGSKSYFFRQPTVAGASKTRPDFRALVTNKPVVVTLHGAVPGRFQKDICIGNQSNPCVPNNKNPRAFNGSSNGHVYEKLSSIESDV

This assay has as its target NR2B subunit of the NMDA receptor (rat (endogenous in lumbar spinal dorsal horn)) (UniProt Q00960). Put plainly: co-IP; rabbit anti-NR2B antibody (5 μg) on Protein G Dynabeads; 500 μg of spinal dorsal horn lysate from naïve rats (RIPA buffer + 0.5% DOC), incubated overnight; eluate blotted for NR2B, PKCζ, CREB and P2X3.

These are yes or no findings as the source states them, for the method shown. In cells and extracts the contact can be indirect. Some results given as binding are weak or reduced against the parent protein; the word gives no strength.

B1: P2X3 receptor (receptor, UniProt P49654 1-397)
chain: MNCISDFFTYETTKSVVVKSWTIGIINRAVQLLIISYFVGWVFLHEKAYQVRDTAIESSVVTKVKGFGRYANRVMDVSDYVTPPQGTSVFVIITKMIVTENQMQGFCPENEEKYRCVSDSQCGPERFPGGGILTGRCVNYSSVLRTCEIQGWCPTEVDTVEMPIMMEAENFTIFIKNSIRFPLFNFEKGNLLPNLTDKDIKRCRFHPEKAPFCPILRVGDVVKFAGQDFAKLARTGGVLGIKIGWVCDLDKAWDQCIPKYSFTRLDGVSEKSSVSPGYNFRFAKYYKMENGSEYRTLLKAFGIRFDVLVYGNAGKFNIIPTIISSVAAFTSVGVGTVLCDIILLNFLKGADHYKARKFEEVTETTLKGTASTNPVFASDQATVEKQSTDSGAYSIGH
B1: the binding result is listed as “no binding”.

B2: atypical protein kinase C zeta (PKCζ) (enzyme, UniProt P09217 1-592)
chain: MPSRTDPKMDRSGGRVRLKAHYGGDILITSVDPTTTFQDLCEEVRDMCGLHQQHPLTLKWVDSEGDPCTVSSQMELEEAFRLACQGRDEVLIIHVFPSIPEQPGMPCPGEDKSIYRRGARRWRKLYRANGHLFQAKRFNRRAYCGQCSERIWGLARQGYRCINCKLLVHKRCHVLVPLTCRRHMDSVMPSQEPPVDDKNDGVDLPSEETDGIAYISSSRKHDNIKDDSEDLKPVIDGVDGIKISQGLGLQDFDLIRVIGRGSYAKVLLVRLKKNDQIYAMKVVKKELVHDDEDIDWVQTEKHVFEQASSNPFLVGLHSCFQTTSRLFLVIEYVNGGDLMFHMQRQRKLPEEHARFYAAEICIALNFLHERGIIYRDLKLDNVLLDADGHIKLTDYGMCKEGLGPGDTTSTFCGTPNYIAPEILRGEEYGFSVDWWALGVLMFEMMAGRSPFDIITDNPDMNTEDYLFQVILEKPIRIPRFLSVKASHVLKGFLNKDPKERLGCRPQTGFSDIKSHAFFRSIDWDLLEKKQTLPPFQPQITDDYGLDNFDTQFTSEPVQLTPDDEDVIKRIDQSEFEGFEYINPLLLSAEESV
Consider B2, for which the binding entry is “binds”.
